# From PMC7493855
# The chains behind the UniProt entries cited, without tags or fusion partners. Where a name states a change or a piece, a line headed by the entry shows the natural chain unless it says otherwise.
# UniProt Q3URK3: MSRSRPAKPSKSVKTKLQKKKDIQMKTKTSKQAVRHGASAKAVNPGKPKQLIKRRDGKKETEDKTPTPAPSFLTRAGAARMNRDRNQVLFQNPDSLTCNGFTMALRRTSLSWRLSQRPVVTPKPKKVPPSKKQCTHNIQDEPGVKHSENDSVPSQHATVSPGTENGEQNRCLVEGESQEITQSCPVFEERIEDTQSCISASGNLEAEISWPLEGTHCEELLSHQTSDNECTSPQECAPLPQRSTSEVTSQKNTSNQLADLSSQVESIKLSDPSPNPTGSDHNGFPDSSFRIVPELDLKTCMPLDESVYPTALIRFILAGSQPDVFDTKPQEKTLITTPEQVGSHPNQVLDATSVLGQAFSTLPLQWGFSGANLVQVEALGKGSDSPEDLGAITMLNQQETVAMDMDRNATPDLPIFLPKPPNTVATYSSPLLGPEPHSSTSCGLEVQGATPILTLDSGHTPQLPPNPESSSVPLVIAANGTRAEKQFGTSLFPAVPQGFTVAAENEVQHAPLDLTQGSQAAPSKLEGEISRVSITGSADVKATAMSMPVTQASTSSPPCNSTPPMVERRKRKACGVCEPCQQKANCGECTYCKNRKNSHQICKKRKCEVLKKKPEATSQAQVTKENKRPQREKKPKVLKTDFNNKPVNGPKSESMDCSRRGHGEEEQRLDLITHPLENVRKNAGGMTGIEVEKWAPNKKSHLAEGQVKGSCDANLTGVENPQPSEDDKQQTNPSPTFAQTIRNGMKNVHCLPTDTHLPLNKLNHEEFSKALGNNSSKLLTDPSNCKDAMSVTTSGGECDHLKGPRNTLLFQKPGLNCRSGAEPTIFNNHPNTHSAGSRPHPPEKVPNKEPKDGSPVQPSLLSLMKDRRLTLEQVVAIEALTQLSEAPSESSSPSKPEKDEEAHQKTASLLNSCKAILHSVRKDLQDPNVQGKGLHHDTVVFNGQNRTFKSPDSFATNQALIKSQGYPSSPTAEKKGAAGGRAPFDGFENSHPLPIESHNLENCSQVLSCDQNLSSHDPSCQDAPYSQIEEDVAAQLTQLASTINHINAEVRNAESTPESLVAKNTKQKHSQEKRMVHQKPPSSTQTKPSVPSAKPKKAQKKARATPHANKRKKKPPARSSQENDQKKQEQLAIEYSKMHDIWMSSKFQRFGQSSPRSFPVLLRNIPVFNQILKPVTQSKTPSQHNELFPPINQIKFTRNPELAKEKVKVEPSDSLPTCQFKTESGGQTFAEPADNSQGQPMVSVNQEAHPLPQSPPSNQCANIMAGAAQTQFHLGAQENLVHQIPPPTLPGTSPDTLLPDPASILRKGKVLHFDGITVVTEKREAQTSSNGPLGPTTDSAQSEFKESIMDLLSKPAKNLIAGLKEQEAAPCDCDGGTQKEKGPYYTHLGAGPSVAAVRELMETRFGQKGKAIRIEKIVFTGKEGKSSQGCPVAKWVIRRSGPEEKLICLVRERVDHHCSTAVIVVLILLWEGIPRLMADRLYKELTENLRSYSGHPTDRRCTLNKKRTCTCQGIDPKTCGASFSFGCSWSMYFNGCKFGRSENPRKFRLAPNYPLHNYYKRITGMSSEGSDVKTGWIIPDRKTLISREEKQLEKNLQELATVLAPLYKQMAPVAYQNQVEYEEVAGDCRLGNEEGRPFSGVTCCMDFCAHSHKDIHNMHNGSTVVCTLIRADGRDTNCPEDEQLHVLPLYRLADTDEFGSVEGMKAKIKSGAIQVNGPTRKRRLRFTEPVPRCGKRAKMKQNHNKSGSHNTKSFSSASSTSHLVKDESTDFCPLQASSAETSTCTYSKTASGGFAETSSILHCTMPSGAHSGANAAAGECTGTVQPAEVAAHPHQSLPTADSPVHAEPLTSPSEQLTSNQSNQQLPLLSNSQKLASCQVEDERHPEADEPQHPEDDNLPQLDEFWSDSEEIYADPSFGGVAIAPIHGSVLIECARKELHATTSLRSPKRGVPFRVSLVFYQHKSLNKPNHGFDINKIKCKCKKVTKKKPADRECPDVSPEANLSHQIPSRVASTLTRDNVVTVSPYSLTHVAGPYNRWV
# UniProt Q91ZW3: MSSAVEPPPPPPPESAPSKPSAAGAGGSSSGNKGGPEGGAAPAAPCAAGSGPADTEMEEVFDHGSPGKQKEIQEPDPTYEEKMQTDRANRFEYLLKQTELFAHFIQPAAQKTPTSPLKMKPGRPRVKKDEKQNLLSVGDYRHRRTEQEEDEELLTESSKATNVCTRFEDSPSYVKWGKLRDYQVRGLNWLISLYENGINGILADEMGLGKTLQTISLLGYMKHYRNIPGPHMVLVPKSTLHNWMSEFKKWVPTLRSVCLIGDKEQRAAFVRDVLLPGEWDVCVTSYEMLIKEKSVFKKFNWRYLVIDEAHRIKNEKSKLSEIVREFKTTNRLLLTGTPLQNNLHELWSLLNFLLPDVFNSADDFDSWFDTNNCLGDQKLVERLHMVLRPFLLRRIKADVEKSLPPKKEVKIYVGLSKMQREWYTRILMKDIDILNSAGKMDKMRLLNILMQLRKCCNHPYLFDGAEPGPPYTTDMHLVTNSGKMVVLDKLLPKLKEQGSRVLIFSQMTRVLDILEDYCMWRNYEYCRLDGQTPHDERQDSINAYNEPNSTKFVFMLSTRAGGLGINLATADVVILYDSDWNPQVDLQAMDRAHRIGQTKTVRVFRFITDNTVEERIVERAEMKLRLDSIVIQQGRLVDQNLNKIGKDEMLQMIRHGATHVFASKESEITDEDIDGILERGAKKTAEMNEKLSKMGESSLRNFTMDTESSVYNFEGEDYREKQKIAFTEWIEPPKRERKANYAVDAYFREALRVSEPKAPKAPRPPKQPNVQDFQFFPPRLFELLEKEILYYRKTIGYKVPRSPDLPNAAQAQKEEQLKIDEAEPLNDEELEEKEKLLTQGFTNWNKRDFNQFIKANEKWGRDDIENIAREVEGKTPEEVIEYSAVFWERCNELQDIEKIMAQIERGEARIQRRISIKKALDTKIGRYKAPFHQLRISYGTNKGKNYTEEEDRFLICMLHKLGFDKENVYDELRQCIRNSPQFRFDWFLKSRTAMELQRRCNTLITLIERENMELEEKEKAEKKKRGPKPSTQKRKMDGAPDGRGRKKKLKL
# UniProt Q9QYJ3: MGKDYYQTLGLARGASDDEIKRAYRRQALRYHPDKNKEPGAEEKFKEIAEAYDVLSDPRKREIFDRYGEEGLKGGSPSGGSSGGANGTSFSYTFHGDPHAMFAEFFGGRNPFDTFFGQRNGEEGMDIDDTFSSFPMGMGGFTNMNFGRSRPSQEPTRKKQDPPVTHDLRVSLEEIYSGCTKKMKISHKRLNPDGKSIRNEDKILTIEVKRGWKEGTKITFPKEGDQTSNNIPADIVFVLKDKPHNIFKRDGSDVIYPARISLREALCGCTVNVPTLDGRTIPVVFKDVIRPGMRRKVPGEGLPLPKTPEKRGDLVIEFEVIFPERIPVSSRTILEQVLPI
# UniProt P47955: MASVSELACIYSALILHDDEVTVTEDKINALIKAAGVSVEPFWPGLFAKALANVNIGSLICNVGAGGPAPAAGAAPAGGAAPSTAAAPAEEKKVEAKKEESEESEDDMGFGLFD
# UniProt O09106: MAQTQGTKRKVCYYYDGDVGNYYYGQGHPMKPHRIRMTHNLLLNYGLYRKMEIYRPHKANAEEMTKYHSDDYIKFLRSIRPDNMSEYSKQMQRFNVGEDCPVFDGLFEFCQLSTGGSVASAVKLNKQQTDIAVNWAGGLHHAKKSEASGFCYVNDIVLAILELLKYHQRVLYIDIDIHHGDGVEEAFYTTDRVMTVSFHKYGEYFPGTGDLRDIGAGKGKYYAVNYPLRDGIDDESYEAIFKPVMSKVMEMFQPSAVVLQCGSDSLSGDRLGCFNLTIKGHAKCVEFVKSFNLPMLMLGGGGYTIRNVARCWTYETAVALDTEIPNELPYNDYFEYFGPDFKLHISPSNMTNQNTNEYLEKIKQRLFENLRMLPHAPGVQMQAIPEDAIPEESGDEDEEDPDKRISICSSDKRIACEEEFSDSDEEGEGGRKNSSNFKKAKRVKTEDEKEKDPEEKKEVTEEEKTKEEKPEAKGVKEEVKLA
# UniProt P63024: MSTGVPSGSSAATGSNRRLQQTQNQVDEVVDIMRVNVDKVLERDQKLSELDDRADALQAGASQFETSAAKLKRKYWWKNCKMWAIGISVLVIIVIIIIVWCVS
# UniProt Q91W53: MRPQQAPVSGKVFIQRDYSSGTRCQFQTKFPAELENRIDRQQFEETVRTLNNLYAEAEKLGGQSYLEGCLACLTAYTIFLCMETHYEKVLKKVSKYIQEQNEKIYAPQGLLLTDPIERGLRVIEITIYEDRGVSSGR
# UniProt P05201: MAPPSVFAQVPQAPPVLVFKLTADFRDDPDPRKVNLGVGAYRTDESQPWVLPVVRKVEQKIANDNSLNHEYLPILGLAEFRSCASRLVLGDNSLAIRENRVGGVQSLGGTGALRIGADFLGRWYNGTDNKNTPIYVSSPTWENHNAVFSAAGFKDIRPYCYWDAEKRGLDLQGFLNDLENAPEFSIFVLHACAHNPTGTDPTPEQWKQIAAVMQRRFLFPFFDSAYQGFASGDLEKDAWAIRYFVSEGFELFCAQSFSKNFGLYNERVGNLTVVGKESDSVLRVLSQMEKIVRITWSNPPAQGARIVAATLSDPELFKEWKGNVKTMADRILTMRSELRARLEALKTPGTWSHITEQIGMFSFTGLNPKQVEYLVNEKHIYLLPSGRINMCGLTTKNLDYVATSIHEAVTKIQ
# UniProt P97493: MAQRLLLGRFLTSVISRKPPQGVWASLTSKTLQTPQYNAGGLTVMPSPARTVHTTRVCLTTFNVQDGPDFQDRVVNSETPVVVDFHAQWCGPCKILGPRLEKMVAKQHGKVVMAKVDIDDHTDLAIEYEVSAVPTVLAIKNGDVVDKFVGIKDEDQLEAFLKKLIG
# B1: Atp8a1 (protein, UniProt P70704 1-1164)
# chain: MPTMRRTVSEIRSRAEGYEKTDDVSEKTSLADQEEVRTIFINQPQLTKFCNNHVSTAKYNVITFLPRFLYSQFRRAANSFFLFIALLQQIPDVSPTGRYTTLVPLLFILAVAAIKEIIEDIKRHKADNAVNKKQTQVLRNGAWEIVHWEKVAVGEIVKVTNGEHLPADLLSLSSSEPQAMCYIETSNLDGETNLKIRQGLPATSDIKDIDSLMRISGRIECESPNRHLYDFVGNIRLDGHGTVPLGADQILLRGAQLRNTQWVHGIVVYTGHDTKLMQNSTSPPLKLSNVERITNVQILILFCILIAMSLVCSVGSAIWNRRHSGKDWYLHLHYGGASNFGLNFLTFIILFNNLIPISLLVTLEVVKFTQAYFINWDLDMHYEPTDTAAMARTSNLNEELGQVKYIFSDKTGTLTCNVMQFKKCTIAGVAYGHVPEPEDYGCSPDEWQSSQFGDEKTFNDPSLLDNLQNNHPTAPIICEFLTMMAVCHTAVPEREGDKIIYQAASPDEGALVRAAKQLNFVFTGRTPDSVIIDSLGQEERYELLNVLEFTSARKRMSVVVRTPSGKLRLYCKGADTVIYERLAETSKYKEITLKHLEQFATEGLRTLCFAVAEISESDFEEWRAVYHRASTSVQNRLLKLEESYELIEKNLQLLGATAIEDKLQDQVPETIETLMKADIKIWILTGDKQETAINIGHSCRLLKRNMGMIVINEGSLDGTRETLSRHCTTLGDALRKENDFALIIDGKTLKYALTFGVRQYFLDLALSCKAVICCRVSPLQKSEVVEMVKKQVKVITLAIGDGANDVSMIQTAHVGVGISGNEGLQAANSSDYSIAQFKYLKNLLMVHGAWNYNRVSKCILYCFYKNIVLYIIEIWFAFVNGFSGQILFERWCIGLYNVMFTAMPPLTLGIFERSCRKENMLKYPELYKTSQNALDFNTKVFWVHCLNGLFHSVILFWFPLKALQYGTVFGNGKTSDYLLLGNFVYTFVVITVCLKAGLETSYWTWFSHIAIWGSIALWVVFFGIYSSLWPAVPMAPDMSGEAAMLFSSGVFWVGLLSIPVASLLLDVLYKVIKRTAFKTLVDEVQELEAKSQDPGAVVLGKSLTERAQLLKNVFKKNHVNLYRSESLQQNLLHGYAFSQDENGIVSQSEVIRAYDTTKQRPDEW
# B2: Dnajc2 (protein, UniProt P54103 1-621)
# chain: MLLLPSAAEGQGTAITHALTSASSVCQVEPVGRWFEAFVKRRNRNASTSFQELEDKKELSEESEDEELQLEEFPMLKTLDPKDWKNQDHYAVLGLGHVRYTATQRQIKAAHKAMVLKHHPDKRKAAGEPIKEGDNDYFTCITKAYEMLSDPVKRRAFNSVDPTFDNSVPSKSEAKDNFFQVFSPVFERNSRWSNKKNVPKLGDMNSSFEDVDAFYSFWYNFDSWREFSYLDEEEKEKAECRDERKWIEKQNRATRAQRKKEEMNRIRTLVDNAYSCDPRIKKFKEEEKAKKEAEKKAKAEARRKEQEAKEKQRQAELEAVRLAKEKEEEEVRQQALLAKKEKDIQKKAIKKERQKLRNSCKSWNHFSDNEADRVKMMEEVEKLCDRLELASLQGLNEILASSTREVGKAALEKQIEEVNEQMRREKEEADARMRQASKNAEKSTGGSGSGSKNWSEDDLQLLIKAVNLFPAGTNSRWEVIANYMNIHSSSGVKRTAKDVISKAKSLQKLDPHQKDDINKKAFDKFKKEHGVASQADSAAPSERFEGPCIDSTPWTTEEQKLLEQALKTYPVNTPERWEKIAEAVPGRTKKDCMRRYKELVEMVKAKKAAQEQVLNASRARK
# B3: Gm2a (protein, UniProt Q60648 21-193)
# chain: ARLVPKRLSQLGGFSWDNCDEGKDPAVIKSLTIQPDPIVVPGDVVVSLEGKTSVPLTAPQKVELTVEKEVAGFWVKIPCVEQLGSCSYENICDLIDEYIPPGESCPEPLHTYGLPCHCPFKEGTYSLPTSNFTVPDLELPSWLSTGNYRIQSILSSGGKRLGCIKIAASLKGR
# B4: Gsr (protein, UniProt P47791 27-500)
# chain: MASPGEPQPPAPDTSSFDYLVIGGGSGGLASARRAAELGARAAVVESHKLGGTCVNVGCVPKKVMWNTAVHSEFMHDHVDYGFQSCEGKFSWHVIKQKRDAYVSRLNTIYQNNLTKSHIEIIHGYATFADGPRPTVEVNGKKFTAPHILIATGGVPTVPHESQIPGASLGITSDGFFQLEDLPSRSVIVGAGYIAVEIAGILSALGSKTSLMIRHDKVLRNFDSLISSNCTEELENAGVEVLKFTQVKEVKKTSSGLELQVVTSVPGRKPTTTMIPDVDCLLWAIGRDPNSKGLNLNKVGIQTDEKGHILVDEFQNTNVKGVYAVGDVCGKALLTPVAIAAGRKLAHRLFECKQDSKLDYDNIPTVVFSHPPIGTVGLTEDEAVHKYGKDNVKIYSTAFTPMYHAVTTRKTKCVMKMVCANKEEKVVGIHMQGIGCDEMLQGFAVAVKMGATKADFDNTVAIHPTSSEELVTLR
# B5: Cst3 (protein, UniProt P21460 21-140)
# chain: ATPKQGPRMLGAPEEADANEEGVRRALDFAVSEYNKGSNDAYHSRAIQVVRARKQLVAGVNYFLDVEMGRTTCTKSQTNLTDCPFHDQPHLMRKALCSFQIYSVPWKGTHSLTKFSCKNA
# B6: Apoe (protein, UniProt P08226 19-311)
# chain: EGEPEVTDQLEWQSNQPWEQALNRFWDYLRWVQTLSDQVQEELQSSQVTQELTALMEDTMTEVKAYKKELEEQLGPVAEETRARLGKEVQAAQARLGADMEDLRNRLGQYRNEVHTMLGQSTEEIRARLSTHLRKMRKRLMRDAEDLQKRLAVYKAGAREGAERGVSAIRERLGPLVEQGRQRTANLGAGAAQPLRDRAQAFGDRIRGRLEEVGNQARDRLEEVREHMEEVRSKMEEQTQQIRLQAEIFQARLKGWFEPIVEDMHRQWANLMEKIQASVATNPIITPVAQENQ
# B7: Acly (protein, UniProt Q91V92 1-1091)
# chain: MSAKAISEQTGKELLYKYICTTSAIQNRFKYARVTPDTDWAHLLQDHPWLLSQSLVVKPDQLIKRRGKLGLVGVNLSLDGVKSWLKPRLGHEATVGKAKGFLKNFLIEPFVPHSQAEEFYVCIYATREGDYVLFHHEGGVDVGDVDAKAQKLLVGVDEKLNTEDIKRHLLVHAPEDKKEVLASFISGLFNFYEDLYFTYLEINPLVVTKDGVYILDLAAKVDATADYICKVKWGDIEFPPPFGREAYPEEAYIADLDAKSGASLKLTLLNPKGRIWTMVAGGGASVVYSDTICDLGGVNELANYGEYSGAPSEQQTYDYAKTILSLMTREKHPEGKILIIGGSIANFTNVAATFKGIVRAIRDYQGPLKEHEVTIFVRRGGPNYQEGLRVMGEVGKTTGIPIHVFGTETHMTAIVGMALGHRPIPNQPPTAAHTANFLLNASGSTSTPAPSRTASFSESRADEVAPAKKAKPAMPQGKSATLFSRHTKAIVWGMQTRAVQGMLDFDYVCSRDEPSVAAMVYPFTGDHKQKFYWGHKEILIPVFKNMADAMKKHPEVDVLINFASLRSAYDSTMETMNYAQIRTIAIIAEGIPEALTRKLIKKADQKGVTIIGPATVGGIKPGCFKIGNTGGMLDNILASKLYRPGSVAYVSRSGGMSNELNNIISRTTDGVYEGVAIGGDRYPGSTFMDHVLRYQDTPGVKMIVVLGEIGGTEEYKICRGIKEGRLTKPVVCWCIGTCATMFSSEVQFGHAGACANQASETAVAKNQALKEAGVFVPRSFDELGEIIQSVYEDLVAKGAIVPAQEVPPPTVPMDYSWARELGLIRKPASFMTSICDERGQELIYAGMPITEVFKEEMGIGGVLGLLWFQRRLPKYSCQFIEMCLMVTADHGPAVSGAHNTIICARAGKDLVSSLTSGLLTIGDRFGGALDAAAKMFSKAFDSGIIPMEFVNKMKKEGKLIMGIGHRVKSINNPDMRVQILKDFVKQHFPATPLLDYALEVEKITTSKKPNLILNVDGFIGVAFVDMLRNCGSFTREEADEYVDIGALNGIFVLGRSMGFIGHYLDQKRLKQGLYRHPWDDISYVLPEHMSM
# B8: Abcb6 (protein, UniProt Q9DC29 1-842)
# chain: MVTVGNYCETEGPAGPAWTQNGLSPCFFFTLVPSTLLTLGVLALVLVLPRRRREVPAGPEELSWAAGPRVAPYVLQLFLATLQMALPLAGLAGRVGTARGVRLPGYLLLASVLESLASVCGLWLLVVERSQARQSLAMGVWMKFRHSLGLLLLWTVTFAAENLALVSWNSPQWWWARADLGQQVQFGLWVLRYVTSGGLFILGLWAPGLRPQSYTLHVHEEDQDVGGNQGRSTDRRSTWRDLGRKLRLLSSYLWPRGSPSLQLIVLICLGLMGLERALNVLVPIFYRDIVNLLTAKAPWSSLAWTVTTYVFLKFLQGGGTGSTGFVSNLRTFLWIRVQQFTSRGVELRLFSHLHELSLRWHLGRRTGEVLRIVDRGTSSVTGLLSYLVFSIIPTLADIIIGIIYFSMFFNAWFGLIVFLCMSLYLILTIVVTEWRAKFRRDMNTQENATRARAVDSLLNFETVKYYGAEGYEVDRYREAILKFQGLEWKSTASLVVLNQTQNLVIGLGLLAGSLLCAYFVSEQKLQVGDFVLFGTYITQLYMPLNWFGTYYRMIQTNFIDMENMFDLLKEETEVKDVPGAGPLRFHKGRIEFENVHFSYADGQETLQDVSFTVMPGQTVALVGPSGAGKSTILRLLFRFYDISSGCIRIDGQDISQVTQISLRSHIGVVPQDTVLFNDTIANNIRYGRVTAGDSEVEAAAQAAGIHDAILSFPEGYETQVGERGLKLSGGEKQRVAIARTILKAPDIILLDEATSALDTSNERAIQASLAKVCTNRTTIVIAHRLSTVVNADQILVIKDGCIIERGRHEALLSRGGVYAEMWQLQQQGQETVPEESKPQDTA
# B9: Vti1b (protein, UniProt O88384 1-232)
# chain: MAASAASSEHFEKLHEIFRGLLEDLQGVPERLLGTAGTEEKKKLVRDFDENQQEANETLAEMEEELRYAPLTFRNPMMSKLRNYRKDLAKLHREVRSTPLTAAPGGRGDLKYGTYTLENEHLNRLQSQRALLLQGTESLNRATQSIERSHRIATETDQIGTEIIEELGEQRDQLERTKSRLVNTNENLSKSRKILRSMSRKVITNKLLLSVIILLELAILVGLVYYKFFRHH
# Molecular target: TET1 (ten-eleven translocation 1), endogenous in oligodendrocyte lineage cells (mouse (endogenous in primary mouse OPCs and OLs)) (UniProt Q3URK3)
# Experiment: affinity purification with mass spectrometry; IP of endogenous TET1 (rabbit anti-TET1, Catch and Release kit) from RIPA lysate of mouse mature OLs; normal IgG as control; SDS-PAGE, in-gel trypsin digestion, LC-MS/MS; done twice
row,binding,Molecule
1,binds,Smarca5 (from UniProt Q91ZW3 1-1051)
2,binds,Dnajb1 (from UniProt Q9QYJ3 1-340)
3,binds,Rplp1 (from UniProt P47955 1-114)
4,binds,"histone deacetylases 1 (HDAC1), endogenous in oligodendrocyte lineage cells (from UniProt O09106 1-482)"
5,binds,B1
6,binds,B2

# Molecular target: TET1 (ten-eleven translocation 1), endogenous in oligodendrocyte lineage cells (mouse (endogenous in primary mouse OPCs and OLs)) (UniProt Q3URK3)
# Experiment: affinity purification with mass spectrometry; IP of endogenous TET1 (rabbit anti-TET1, Catch and Release kit) from RIPA lysate of purified mouse OPCs; normal IgG as control; SDS-PAGE, in-gel trypsin digestion, LC-MS/MS; done twice
row,binding,Molecule
1,binds,Vamp3 (from UniProt P63024 1-103)
2,binds,Golga7 (from UniProt Q91W53 1-137)
3,binds,Got1 (from UniProt P05201 1-413)
4,binds,Tnx2 (from UniProt P97493)
5,binds,B3
6,binds,B4
7,binds,B5
8,binds,B6
9,binds,B7
10,binds,B8
11,binds,B9

# Results are given in words; binding and its absence hold for the method and conditions named. In cells and extracts the contact can be indirect. These calls come from enrichment with a bait or labelling near it, and not all partners need be listed.
